Laboratory results published in patent publication US9469650B2, “Melampomagnolide B derivatives” (BOARD OF TRUSTEES OF THE UNIVERSITY OF ARKANSAS, priority 2013, dated 2016).
The name of at least one read-out is uncertain.

Legend:
RXF 393 = assay: panel of 60 human tumor cell lines, growth inhibition (Renal Cancer)
A498 = assay: as above
HCT-116 = assay: panel of 60 human tumor cell lines, growth inhibition (Colon Cancer)
HOP-62 = assay: panel of 60 human tumor cell lines, growth inhibition (Non-Small Cell Lung Cancer)
A549/ATCC = assay: as above
SNB-75 = assay: panel of 60 human tumor cell lines, growth inhibition (CNS Cancer)
SF-295 = assay: as above
COLO 205 = assay: panel of 60 human tumor cell lines, growth inhibition (Colon Cancer)
786-0 = assay: panel of 60 human tumor cell lines, growth inhibition (Renal Cancer)
SN12C = assay: as above
NCI-H322M = assay: panel of 60 human tumor cell lines, growth inhibition (Non-Small Cell Lung Cancer)
SK-MEL-28 = assay: panel of 60 human tumor cell lines, growth inhibition (Melanoma)
HS 578T = assay: panel of 60 human tumor cell lines, growth inhibition (Breast Cancer); conditions: HS 578T
M14 = assay: panel of 60 human tumor cell lines, growth inhibition (Melanoma)
HCC-2998 = assay: panel of 60 human tumor cell lines, growth inhibition (Colon Cancer)
LOX IMVI = assay: panel of 60 human tumor cell lines, growth inhibition (Melanoma)
SK-MEL-2 = assay: as above
OVCAR-5 = assay: panel of 60 human tumor cell lines, growth inhibition (Ovarian Cancer)
T-47D = assay: panel of 60 human tumor cell lines, growth inhibition (Breast Cancer)
TK-10 = assay: panel of 60 human tumor cell lines, growth inhibition (Renal Cancer)
MDA-MB-468 = assay: panel of 60 human tumor cell lines, growth inhibition (Breast Cancer)

With C=C1C(=O)O[C@H]2[C@H]1CC/C(COC(=O)NCCCCCCO)=C\CC[C@@]1(C)O[C@@H]21 [JVM 2-31] the “Percent Growth” value (RXF 393; Log10 Concentration −4.0) was −82%, the “Percent Growth” value (RXF 393; Log10 Concentration −5.0) was −1% and the “Percent Growth” value (RXF 393; Log10 Concentration −6.0) was 55%. The “Percent Growth” value (RXF 393; Log10 Concentration −7.0) was 93%, the “Percent Growth” value (RXF 393; Log10 Concentration −8.0) was 92% and the “Percent Growth” value (A498; Log10 Concentration −4.0) was −93%. The “Percent Growth” value (A498; Log10 Concentration −5.0) was 66%, the “Percent Growth” value (A498; Log10 Concentration −6.0) was 99% and the “Percent Growth” value (A498; Log10 Concentration −7.0) was 96%. For the same compound, the “Percent Growth” value (A498; Log10 Concentration −8.0) was 91%, the “Percent Growth” value (HCT-116; Log10 Concentration −4.0) was −98% and the “Percent Growth” value (HCT-116; Log10 Concentration −5.0) was 4%. The “Percent Growth” value (HCT-116; Log10 Concentration −6.0) was 86%, the “Percent Growth” value (HCT-116; Log10 Concentration −7.0) was 99% and the “Percent Growth” value (HCT-116; Log10 Concentration −8.0) was 98%. For the same compound, the “Percent Growth” value (HOP-62; Log10 Concentration −4.0) was −60%, the “Percent Growth” value (HOP-62; Log10 Concentration −5.0) was 95% and the “Percent Growth” value (HOP-62; Log10 Concentration −6.0) was 95%. For the same compound, the “Percent Growth” value (HOP-62; Log10 Concentration −7.0) was 91%, the “Percent Growth” value (HOP-62; Log10 Concentration −8.0) was 90% and the “Percent Growth” value (A549/ATCC; Log10 Concentration −4.0) was −60%. For the same compound, the “Percent Growth” value (A549/ATCC; Log10 Concentration −5.0) was 83%, the “Percent Growth” value (A549/ATCC; Log10 Concentration −6.0) was 104% and the “Percent Growth” value (A549/ATCC; Log10 Concentration −7.0) was 106%. The “Percent Growth” value (A549/ATCC; Log10 Concentration −8.0) was 101%, the “Percent Growth” value (SNB-75; Log10 Concentration −4.0) was −98% and the “Percent Growth” value (SNB-75; Log10 Concentration −5.0) was 43%. For the same compound, the “Percent Growth” value (SNB-75; Log10 Concentration −6.0) was 74%, the “Percent Growth” value (SNB-75; Log10 Concentration −7.0) was 78% and the “Percent Growth” value (SNB-75; Log10 Concentration −8.0) was 68%. The “Percent Growth” value (SF-295; Log10 Concentration −4.0) was −59%, the “Percent Growth” value (SF-295; Log10 Concentration −5.0) was 72% and the “Percent Growth” value (SF-295; Log10 Concentration −7.0) was 90%. For the same compound, the “Percent Growth” value (SF-295; Log10 Concentration −8.0) was 84%, the “Percent Growth” value (COLO 205; Log10 Concentration −4.0) was −75% and the “Percent Growth” value (COLO 205; Log10 Concentration −5.0) was −24%. The “Percent Growth” value (COLO 205; Log10 Concentration −6.0) was 101%, the “Percent Growth” value (COLO 205; Log10 Concentration −7.0) was 107% and the “Percent Growth” value (COLO 205; Log10 Concentration −8.0) was 96%. For the same compound, the “Percent Growth” value (786-0; Log10 Concentration −4.0) was −84%, the “Percent Growth” value (786-0; Log10 Concentration −5.0) was 11% and the “Percent Growth” value (786-0; Log10 Concentration −6.0) was 85%. For the same compound, the “Percent Growth” value (786-0; Log10 Concentration −7.0) was 94%, the “Percent Growth” value (786-0; Log10 Concentration −8.0) was 89% and the “Percent Growth” value (SN12C; Log10 Concentration −4.0) was −69%. For the same compound, the “Percent Growth” value (SN12C; Log10 Concentration −5.0) was 52%, the “Percent Growth” value (SN12C; Log10 Concentration −6.0) was 96% and the “Percent Growth” value (SN12C; Log10 Concentration −7.0) was 95%. For the same compound, the “Percent Growth” value (SN12C; Log10 Concentration −8.0) was 96%, the “Percent Growth” value (NCI-H322M; Log10 Concentration −4.0) was −6% and the “Percent Growth” value (NCI-H322M; Log10 Concentration −5.0) was 108%. For the same compound, the “Percent Growth” value (NCI-H322M; Log10 Concentration −7.0) was 103%, the “Percent Growth” value (NCI-H322M; Log10 Concentration −8.0) was 103% and the “Percent Growth” value (SK-MEL-28; Log10 Concentration −4.0) was −97%. The “Percent Growth” value (SK-MEL-28; Log10 Concentration −5.0) was 33%, the “Percent Growth” value (SK-MEL-28; Log10 Concentration −6.0) was 92% and the “Percent Growth” value (SK-MEL-28; Log10 Concentration −7.0) was 98%. For the same compound, the “Percent Growth” value (SK-MEL-28; Log10 Concentration −8.0) was 92%, the “Percent Growth” value (HS 578T; Log10 Concentration −4.0) was −96% and the “Percent Growth” value (HS 578T; Log10 Concentration −5.0) was 30%. For the same compound, the “Percent Growth” value (HS 578T; Log10 Concentration −6.0) was 79%, the “Percent Growth” value (HS 578T; Log10 Concentration −7.0) was 93% and the “Percent Growth” value (HS 578T; Log10 Concentration −8.0) was 84%. For the same compound, the “Percent Growth” value (M14; Log10 Concentration −4.0) was −88%, the “Percent Growth” value (M14; Log10 Concentration −5.0) was 28% and the “Percent Growth” value (M14; Log10 Concentration −6.0) was 92%. The “Percent Growth” value (M14; Log10 Concentration −7.0) was 99%, the “Percent Growth” value (M14; Log10 Concentration −8.0) was 91% and the “Percent Growth” value (HCC-2998; Log10 Concentration −4.0) was −85%. The “Percent Growth” value (HCC-2998; Log10 Concentration −5.0) was 82%, the “Percent Growth” value (HCC-2998; Log10 Concentration −6.0) was 109% and the “Percent Growth” value (HCC-2998; Log10 Concentration −7.0) was 106%. For the same compound, the “Percent Growth” value (HCC-2998; Log10 Concentration −8.0) was 110%, the “Percent Growth” value (LOX IMVI; Log10 Concentration −4.0) was −87% and the “Percent Growth” value (LOX IMVI; Log10 Concentration −5.0) was 11%. For the same compound, the “Percent Growth” value (LOX IMVI; Log10 Concentration −6.0) was 95%, the “Percent Growth” value (LOX IMVI; Log10 Concentration −7.0) was 100% and the “Percent Growth” value (LOX IMVI; Log10 Concentration −8.0) was 98%. For the same compound, the “Percent Growth” value (SK-MEL-2; Log10 Concentration −4.0) was −72%, the “Percent Growth” value (SK-MEL-2; Log10 Concentration −5.0) was 73% and the “Percent Growth” value (SK-MEL-2; Log10 Concentration −6.0) was 106%. For the same compound, the “Percent Growth” value (SK-MEL-2; Log10 Concentration −7.0) was 110%, the “Percent Growth” value (SK-MEL-2; Log10 Concentration −8.0) was 103% and the “Percent Growth” value (OVCAR-5; Log10 Concentration −4.0) was −78%. For the same compound, the “Percent Growth” value (OVCAR-5; Log10 Concentration −5.0) was 69%, the “Percent Growth” value (OVCAR-5; Log10 Concentration −6.0) was 93% and the “Percent Growth” value (OVCAR-5; Log10 Concentration −7.0) was 92%. The “Percent Growth” value (OVCAR-5; Log10 Concentration −8.0) was 84%, the “Percent Growth” value (T-47D; Log10 Concentration −4.0) was −45% and the “Percent Growth” value (T-47D; Log10 Concentration −5.0) was 1%. The “Percent Growth” value (T-47D; Log10 Concentration −6.0) was 89%, the “Percent Growth” value (T-47D; Log10 Concentration −7.0) was 107% and the “Percent Growth” value (T-47D; Log10 Concentration −8.0) was 104%. For the same compound, the “Percent Growth” value (TK-10; Log10 Concentration −4.0) was −94%, the “Percent Growth” value (TK-10; Log10 Concentration −5.0) was −1% and the “Percent Growth” value (TK-10; Log10 Concentration −6.0) was 87%. For the same compound, the “Percent Growth” value (TK-10; Log10 Concentration −7.0) was 95%, the “Percent Growth” value (TK-10; Log10 Concentration −8.0) was 94% and the “Percent Growth” value (MDA-MB-468; Log10 Concentration −4.0) was −75%. For the same compound, the “Percent Growth” value (MDA-MB-468; Log10 Concentration −5.0) was −20%, the “Percent Growth” value (MDA-MB-468; Log10 Concentration −6.0) was 50% and the “Percent Growth” value (MDA-MB-468; Log10 Concentration −7.0) was 90%. The “Percent Growth” value (MDA-MB-468; Log10 Concentration −8.0) was 93%.
